{"sequences": {"note": "Sequences of proteins named here, by UniProt entry; tags and fusion partners are left off. A change or cut given only in a name is not applied to a line headed by its entry.", "UniProt P18054": "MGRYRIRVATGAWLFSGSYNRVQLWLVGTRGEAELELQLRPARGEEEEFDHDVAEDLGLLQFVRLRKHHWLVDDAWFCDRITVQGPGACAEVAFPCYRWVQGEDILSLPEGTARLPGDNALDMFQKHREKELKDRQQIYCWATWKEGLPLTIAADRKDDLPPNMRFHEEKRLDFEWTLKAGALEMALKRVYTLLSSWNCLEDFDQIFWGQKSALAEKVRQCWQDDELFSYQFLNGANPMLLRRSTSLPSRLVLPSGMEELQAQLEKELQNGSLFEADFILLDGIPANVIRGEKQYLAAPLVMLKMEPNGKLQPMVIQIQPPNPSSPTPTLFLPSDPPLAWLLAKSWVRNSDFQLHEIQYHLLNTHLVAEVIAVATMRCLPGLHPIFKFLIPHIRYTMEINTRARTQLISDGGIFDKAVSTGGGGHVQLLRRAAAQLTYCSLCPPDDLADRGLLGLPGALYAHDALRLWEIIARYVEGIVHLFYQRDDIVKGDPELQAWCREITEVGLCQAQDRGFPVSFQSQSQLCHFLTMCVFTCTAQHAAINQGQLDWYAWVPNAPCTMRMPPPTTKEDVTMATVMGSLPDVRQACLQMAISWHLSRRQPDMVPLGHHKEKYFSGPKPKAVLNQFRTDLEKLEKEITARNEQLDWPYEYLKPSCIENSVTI"}, "source": "PubChem BioAssay AID1671190", "about": "(National Center for Advancing Translational Sciences (NCATS), 2021)", "note": "The campaign covered roughly 580,000 compounds. About 6,100 (1.1%) were called active. The inconclusive results got no clear call from the source; some entries with a clear call stand among them for comparison. The call rests on the fitted dose curve; in most records, active means well fitted inhibition curve with a large enough effect; inconclusive means small, poorly fitted or top-dose-only effect, or another doubt; inactive means no such curve, though single readings can be large or run the other way. Potencies of inconclusive entries are doubtful fits and often do not repeat.", "data": [{"biological_target": "Polyunsaturated fatty acid lipoxygenase ALOX12 (Homo sapiens) (UniProt P18054)", "experiment": "Primary qHTS assay for inhibitors of human arachidonate 12S-lipoxygenase (ALOX12): Round 2; further: potency means the concentration at half of the fitted maximal effect; on activity change, negative = inhibition: on the % scale 0 is the no-effect control and ±100 the full control effect", "conditions": "purified 12hLO, xylenol orange hydroperoxide absorbance; activity change, negative = inhibition: at 108 µM (top of the series) unless noted", "how_it_was_run": "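Purified human 12hLO at 150 nM in 25 mM Hepes, 0.01% Triton X-100, pH 7.0, preincubated 15 min at room temperature with compound. Reaction started with 40 uM arachidonic acid, 30 min at room temperature. Hydroperoxide measured by Fe-xylenol orange, 573/405 nm absorbance ratio.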", "values": [{"compound": "COc1ccc(CC(C(=O)Nc2ccc(OC)cc2)c2nn[nH]n2)cc1", "note": "(stereo not drawn)", "Potency": "active: 4.47 µM"}, {"compound": "COc1ccc(CN(C(=O)c2ccco2)c2ccc(CC(=O)NCCc3ccccc3)cc2)cc1", "Potency": "inconclusive: 17.8 µM [inhibitor, full curve]"}, {"compound": "Cc1ccc2oc(-c3ccc(C)c(NC(=O)/C=C/c4ccco4)c3)nc2c1", "Potency": "inconclusive: 56.2 µM [inhibitor, partial curve, poor fit]"}, {"compound": "CC(C)=CC1C(C(=O)Nc2ccccc2OC(F)(F)F)C1(C)C", "note": "(stereo not drawn)", "Potency": "inactive"}, {"compound": "CCc1ccc(C2C(C(C)=O)C(=O)CC(C)(O)C2C(C)=O)cc1", "note": "(stereo not drawn)", "Potency": "inconclusive: 14.1 µM [inhibitor, partial curve, poor fit]"}, {"compound": "CCN1c2cc(C(=O)NC3CCCCCC3)ccc2C(=O)N2CCCCC21", "note": "(stereo not drawn)", "Potency": "inactive"}, {"compound": "NC(=O)c1ccc(NC(=O)COC(=O)c2c[nH]c3ccccc23)cc1", "Potency": "inconclusive: 39.8 µM [inhibitor, single point]"}, {"compound": "CCCn1ccc2oc(C)c(C(=O)N3CCN(c4ccc(OC)cc4)CC3)c2c1=O", "Potency": "inconclusive: 79.4 µM [inhibitor, single point]"}, {"compound": "O=C1Nc2ccccc2/C1=N/c1sc2c(c1C(=O)NCCc1ccccc1)CCCC2", "Potency": "inconclusive: 31.6 µM [inhibitor, partial curve, poor fit]"}, {"compound": "Cc1ccc2c(=O)n3c(nc2c1)C(Cc1ccccc1)NC(=O)c1cc2ccccc2cc1-3", "note": "(stereo not drawn)", "Potency": "inconclusive: 79.4 µM [inhibitor, single point]"}, {"compound": "CCc1cccc(CC)c1NC(=O)CNCc1cccs1", "Potency": "inconclusive: 2.82 µM [inhibitor, full curve, poor fit]"}, {"compound": "C=CCOC(=O)C1=C[C@H](c2csc3ccccc23)C[C@H](OCc2ccc(CO)cc2)O1", "Potency": "inactive"}, {"compound": "O=C(Cc1ccccc1)N1CCC(Oc2cnc3c(ccn3-c3cncnc3)c2)CC1", "Potency": "inconclusive: 2.82 µM [inhibitor, full curve, poor fit]"}, {"compound": "O=C(O)C(=Cc1ccnc2ccccc12)C(=O)O", "Potency": "inconclusive: 14.1 µM [inhibitor, full curve]"}, {"compound": "O=C(c1cc2cc(Br)cc(Br)c2oc1=O)N1CCOCC1", "Potency": "inconclusive: 2.82 µM [inhibitor, full curve, poor fit]"}, {"compound": "CO[C@H]1[C@H](NC(=O)c2c(F)ccc(C)c2F)c2ccccc2C12CCNCC2", "Potency": "inactive"}, {"compound": "Cc1ccc(CN2CCN(/N=C/c3cccn3C)CC2)c(C)c1", "Potency": "inconclusive: 39.8 µM [inhibitor, partial curve]"}, {"compound": "COc1ccc(NC(=S)Nc2cccc3ccccc23)cc1OC", "Potency": "inconclusive: 44.7 µM [inhibitor, partial curve]"}, {"compound": "Cc1ccc(NCCN(C)C)c2c(=O)c3cc(O)ccc3sc12", "Potency": "inconclusive: 50.1 µM [inhibitor, partial curve, poor fit]"}, {"compound": "COc1cccc(-c2noc(Nc3ccc4c(c3)OCO4)n2)c1", "Potency": "inconclusive: 31.6 µM [inhibitor, partial curve]"}, {"compound": "COc1ccc(OC)c(S(=O)(=O)N2CCN(c3cccc(C)c3C)CC2)c1", "Potency": "inactive"}, {"compound": "O=C(CSc1nnc(-c2ccncc2)n1Cc1ccco1)Nc1ccccc1F", "Potency": "inactive"}, {"compound": "O=C(O)CSc1nnc(-c2cccnc2)n1Cc1ccccc1", "Potency": "inactive"}, {"compound": "Cc1cc(C)c(NC(=O)CNC(=O)c2cc3cc(Cl)ccc3nc2C)c(C)c1", "Potency": "inconclusive: 15.8 µM [inhibitor, partial curve, poor fit]"}, {"compound": "O=C(Nc1ccc(F)cc1)c1cc2cc(F)ccc2[nH]1", "Potency": "inactive"}, {"compound": "Cc1ccc2nc(/C(C#N)=C\\c3ccc(-c4cc(C(=O)O)cc(C(=O)O)c4)o3)[nH]c2c1", "Potency": "inconclusive: 5.62 µM [inhibitor, full curve]"}, {"compound": "Cc1cccnc1NC(=O)CN1C(=O)COc2ccc(Cl)cc21", "Potency": "active: 12.6 µM"}, {"compound": "NC(=O)C1CCN(Cc2cccc(C(F)(F)F)c2)CC1", "Potency": "inactive"}, {"compound": "O=C(O)/C(=C/C=C/c1ccccc1)NC(=O)c1ccccc1", "Potency": "inconclusive: 12.6 µM [inhibitor, full curve, poor fit]"}, {"compound": "O=C(O)C1=C[C@@H](c2ccccc2)C[C@@H](OCc2ccc(CO)cc2)O1", "Potency": "inconclusive: 39.8 µM [inhibitor, partial curve, poor fit]"}, {"compound": "C[C@H](CO)N1C[C@H](C)[C@@H](CN(C)S(=O)(=O)c2cn(C)cn2)Oc2c(NS(=O)(=O)c3ccc(F)cc3)cccc2C1=O", "Potency": "inconclusive: 89.1 µM [inhibitor, single point]"}, {"compound": "CCN(CC)C(=O)C1=C(C)N(CCCOC)C(=O)C(CC(=O)NC(c2ccccc2)c2ccccc2)C1", "note": "(stereo not drawn)", "Potency": "inconclusive: 35.5 µM [inhibitor, single point]"}, {"compound": "O=C(c1ccc2ccccc2c1)N1CCN(S(=O)(=O)/C=C/c2ccccc2)CC1", "Potency": "inactive"}, {"compound": "COc1ccc2c(c1)c[n+](C)c1c3cc(OC)c(OC)cc3ccc21", "Potency": "inconclusive: 89.1 µM [inhibitor, partial curve, poor fit]"}, {"compound": "COc1cccc(N2CCN(Cc3nc(N)nc(Nc4ccccc4)n3)CC2)c1", "Potency": "inactive"}, {"compound": "Cc1ccccc1N1CCN(CC(=O)Nc2nc(C)c(C(=O)N(C)C)s2)CC1", "Potency": "inactive"}, {"compound": "Nc1nc(CN2CCN(C(=O)c3ccco3)CC2)nc(Nc2cccc(Cl)c2)n1", "Potency": "inconclusive: 31.6 µM [inhibitor, single point]"}, {"compound": "COC(=O)c1ccccc1NC(=O)Cn1c(=O)n(CCC(=O)NCc2ccc3c(c2)OCO3)c(=O)c2ccccc21", "Potency": "inconclusive: 89.1 µM [inhibitor, partial curve, poor fit]"}, {"compound": "Cc1cc(C(=O)N/N=C/c2ccc3c(c2)OCO3)c(C)o1", "Potency": "inactive"}, {"compound": "COc1ccc(C(=O)c2cn(CC(=O)Nc3cc(OC)cc(OC)c3)c3ccc(OC)cc3c2=O)cc1", "Potency": "inactive"}, {"compound": "Cc1ccc(S(=O)(=O)N2[C@H](c3ccccc3)CC(=O)[C@@H]3CN(S(=O)(=O)c4ccccc4)[C@H](c4ccccc4)C[C@@H]32)cc1", "Potency": "inconclusive: 112 µM [inhibitor, single point]"}, {"compound": "CC1=C(C(=O)OC2CCCC2)C(c2c(F)cccc2Cl)CC(=O)N1", "note": "(stereo not drawn)", "Potency": "inactive"}, {"compound": "N#Cc1cc2c(=O)n3ccccc3nc2n(-c2ccccc2Cl)c1=O", "Potency": "inconclusive: 44.7 µM [inhibitor, single point]"}, {"compound": "COc1ccc(C(CNC(=O)CCc2nnc(-c3ccccc3)o2)N(C)C)cc1", "note": "(stereo not drawn)", "Potency": "inactive"}, {"compound": "COC(=O)c1cccc2c1-c1ccccc1/C2=N/O", "Potency": "inconclusive: 56.2 µM [inhibitor, partial curve, poor fit]"}, {"compound": "Cc1nnc(NC(=O)Cc2cccs2)s1", "Potency": "inconclusive: 39.8 µM [inhibitor, partial curve]"}, {"compound": "COc1ccc(Cc2nnc(NC(=O)C3CCCO3)s2)cc1OC", "note": "(stereo not drawn)", "Potency": "inconclusive: 35.5 µM [inhibitor, partial curve, poor fit]"}, {"compound": "O=C(Nc1ccc(F)c(F)c1)c1ccc(S(=O)(=O)C2CCS(=O)(=O)C2)cc1", "note": "(stereo not drawn)", "Potency": "inactive"}, {"compound": "CCOC(=O)c1c(S(=O)(=O)N2CCC(C(=O)NCc3cccc(OC)c3)CC2)c(C)n(C)c1C", "Potency": "inactive"}, {"compound": "CC(=O)c1ccc(N2CCN(C(=O)CCc3ncc(-c4ccc(F)cc4)o3)CC2)c(F)c1", "Potency": "inactive"}, {"compound": "COc1ccc(CNCCCNCc2ccc(OC)c(OC)c2)cc1OC", "Potency": "inconclusive: 31.6 µM [inhibitor, partial curve, poor fit]"}, {"compound": "CN(C)C(=O)c1cn(-c2ccccc2)nc1-c1cccc([N+](=O)[O-])c1", "Potency": "inactive"}, {"compound": "CN(C)c1ncccc1CNC(=O)C1CCCN(S(C)(=O)=O)C1", "note": "(stereo not drawn)", "Potency": "inactive"}, {"compound": "COCC(=O)N(C1CCOCC1)C1CCN(C(=O)c2cccnc2C)CC1", "Potency": "inactive"}, {"compound": "COc1cccc(N2C(=O)C(CC(=O)Nc3cccc(F)c3)N(C3CCCC3)C2=O)c1", "note": "(stereo not drawn)", "activity change, negative = inhibition": "inconclusive: -45.2% [inhibitor]"}, {"compound": "Cn1ccnc1SCC(=O)Nc1cccc(Br)c1", "Potency": "inconclusive: 14.1 µM [inhibitor, partial curve, poor fit]"}, {"compound": "Cc1ccc(OCC(=O)N/N=C\\c2c(C)[nH]n(-c3ccccc3)c2=O)c([N+](=O)[O-])c1", "Potency": "inconclusive: 50.1 µM [inhibitor, partial curve, poor fit]"}, {"compound": "COc1ccc(/C=C2\\SC(=S)N(CCC(=O)Nc3ccc(C(=O)O)cc3)C2=O)cc1", "Potency": "inactive"}, {"compound": "O=C1NCc2ccccc2CC12CCCCN2Cc1cnc2ccccc2c1", "note": "(stereo not drawn)", "Potency": "inconclusive: 35.5 µM [inhibitor, partial curve, poor fit]"}, {"compound": "Cc1ccc(S(=O)(=O)ON2C(=O)c3ccccc3C2=O)c(C)c1", "Potency": "inconclusive: 31.6 µM [inhibitor, partial curve]"}, {"compound": "COc1ccc(C(=O)N2CCN(C)C(C)C2)cc1OC1CCN(C(C)=O)CC1", "note": "(stereo not drawn)", "Potency": "inactive"}, {"compound": "Cc1nnc(NC(=O)c2cc(-c3ccccc3C)nc3ccccc23)s1", "Potency": "inconclusive: 39.8 µM [inhibitor, single point]"}, {"compound": "Cc1cc(F)ccc1OC1CN(Cc2ccccc2)C1", "Potency": "inconclusive: 112 µM [inhibitor, single point]"}, {"compound": "CCN(Cc1cccs1)C(=O)c1ccc(C#N)cc1", "Potency": "inconclusive: 224 µM [inhibitor, partial curve, poor fit]"}, {"compound": "COc1ccc(C(=O)c2cc(C(C)=O)c(Nc3ccccc3)s2)cc1", "Potency": "inconclusive: 1.12 µM [inhibitor, full curve, poor fit]"}, {"compound": "Cn1c(=O)c2cc(NC(=S)NC3CCCCC3)ccc2n1-c1ccccc1", "Potency": "inconclusive: 50.1 µM [inhibitor, partial curve, poor fit]"}, {"compound": "O=C(COC(=O)c1cc(-c2ccco2)nc2ccccc12)NCc1ccccc1", "Potency": "active: 10 µM"}, {"compound": "Cc1cc(C(=O)CN2C(=O)NC3(CCCCCC3)C2=O)c(C)n1C", "Potency": "inconclusive: 100 µM [inhibitor, single point]"}]}]}
